No constants are given. Whether binding was seen depends on the method and setting. In cells and extracts the contact can be indirect. Some binding calls cover weakened binding; strength is not graded here.
Target: enolase 1 (Eno1) (mouse (endogenous in EO771)) (UniProt P17182)
Assay: co-IP; antibody for Hsp90ab1 or Eno1 (2 µg) on protein A sepharose, incubated overnight with 600 µL EO771 cell lysate, washed three times with PBS, Western blot; normal IgG as negative control

Amino acid sequences for entries named in this document (tags omitted).
UniProt P17182: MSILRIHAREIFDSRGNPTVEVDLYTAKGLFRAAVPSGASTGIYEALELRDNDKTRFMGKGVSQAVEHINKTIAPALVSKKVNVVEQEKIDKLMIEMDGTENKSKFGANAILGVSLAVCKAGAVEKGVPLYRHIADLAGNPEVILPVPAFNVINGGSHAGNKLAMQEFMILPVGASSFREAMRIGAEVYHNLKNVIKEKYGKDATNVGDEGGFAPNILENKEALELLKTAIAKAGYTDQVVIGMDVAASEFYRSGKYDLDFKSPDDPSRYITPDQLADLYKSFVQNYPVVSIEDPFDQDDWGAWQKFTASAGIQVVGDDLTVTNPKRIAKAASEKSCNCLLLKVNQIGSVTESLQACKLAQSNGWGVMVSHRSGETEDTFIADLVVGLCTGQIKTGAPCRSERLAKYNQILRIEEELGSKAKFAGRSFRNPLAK

B1: CD44, a cell-adhesion receptor (receptor, UniProt P15379 23-778)
chain: QIDLNVTCRYAGVFHVEKNGRYSISRTEAADLCQAFNSTLPTMDQMKLALSKGFETCRYGFIEGNVVIPRIHPNAICAANHTGVYILVTSNTSHYDTYCFNASAPPEEDCTSVTDLPNSFDGPVTITIVNRDGTRYSKKGEYRTHQEDIDASNIIDDDVSSGSTIEKSTPEGYILHTYLPTEQPTGDQDDSFFIRSTLATIASTVHSKSHAAAQKQNNWIWSWFGNSQSTTQTQEPTTSATTALMTTPETPPKRQEAQNWFSWLFQPSESKSHLHTTTKMPGTESNTNPTGWEPNEENEDETDTYPSFSGSGIDDDEDFISSTIATTPRVSARTEDNQDWTQWKPNHSNPEVLLQTTTRMADIDRISTSAHGENWTPEPQPPFNNHEYQDEEETPHATSTTPNSTAEAAATQQETWFQNGWQGKNPPTPSEDSHVTEGTTASAHNNHPSQRITTQSQEDVSWTDFFDPISHPMGQGHQTESKDTDSSHSTTLQPTAAPNTHLVEDLNRTGPLSVTTPQSHSQNFSTLHGEPEEDENYPTTSILPSSTKSSAKDARRGGSLPTDTTTSVEGYTFQYPDTMENGTLFPVTPAKTEVFGETEVTLATDSNVNVDGSLPGDRDSSKDSRGSSRTVTHGSELAGHSSANQDSGVTTTSGPMRRPQIPEWLIILASLLALALILAVCIAVNSRRRCGQKKKLVINGGNGTVEDRKPSELNGEASKSQEMVHLVNKEPSETPDQCMTADETRNLQSVDMKIGV
B1 was tested, and the binding was “binds”.

From article PMC8615769
